“Also recorded” adds a separate entry of the source. At least one compound was matched to its structure with a doubt left.
What was measured:
[1] = system: female rabbit isolated heart; experiment: Monophasic action potential duration (MAPD90) in female rabbit isolated heart; conditions: dronedarone alone
Procedure: Each rabbit was sedated using intramuscular injections of 6 mg/kg xylazine and 40 mg/kg ketamine and then anesthetized using a “cocktail” of ketamine (15 mg/kg)+xylazine (4 mg/kg) in 1.5 ml saline. The ketamine/xylazine cocktail was administered as an i.v. bolus via the marginal ear vein. After anesthesia was confirmed, the thorax was opened and the heart was quickly excised. The heart was placed in a modified Krebs-Henseleit (K-H) physiological saline solution at room temperature. The K-H solution contained (in mmol/L): NaCl 118, KCl 2.8, KH2PO4 1.2, CaCl2 2.5, MgSO4 0.5, pyruvate 2.0, glucose 5.5, Na2EDTA 0.57 and NaHCO3 25. […] CPP was measured (with a Biopac MP 150 pressure transducer, Goleta, Calif.) from a side port of the aortic catheter. […]
Monophasic action potential (MAP) and ECG electrodes from Harvard Apparatus Inc. (Holliston, Mass.) were used to record heart rate (in beats per minute, or bpm), left ventricular MAPs and a bipolar ECG MAP electrodes were pressure contact Ag—AgCl cells attached to a circular holder with springs to keep the electrodes in contact with the LV epicardial surface. […] To ensure that each response to drug had achieved a steady state before a drug concentration was changed, the MAP duration (from onset of depolarization to 100% repolarization) was measured using an on-screen caliper throughout each drug infusion period. […]

Protein sequences, listed by entry. Tags and fused reporters are not part of them.
UniProt Q14524, whole entry: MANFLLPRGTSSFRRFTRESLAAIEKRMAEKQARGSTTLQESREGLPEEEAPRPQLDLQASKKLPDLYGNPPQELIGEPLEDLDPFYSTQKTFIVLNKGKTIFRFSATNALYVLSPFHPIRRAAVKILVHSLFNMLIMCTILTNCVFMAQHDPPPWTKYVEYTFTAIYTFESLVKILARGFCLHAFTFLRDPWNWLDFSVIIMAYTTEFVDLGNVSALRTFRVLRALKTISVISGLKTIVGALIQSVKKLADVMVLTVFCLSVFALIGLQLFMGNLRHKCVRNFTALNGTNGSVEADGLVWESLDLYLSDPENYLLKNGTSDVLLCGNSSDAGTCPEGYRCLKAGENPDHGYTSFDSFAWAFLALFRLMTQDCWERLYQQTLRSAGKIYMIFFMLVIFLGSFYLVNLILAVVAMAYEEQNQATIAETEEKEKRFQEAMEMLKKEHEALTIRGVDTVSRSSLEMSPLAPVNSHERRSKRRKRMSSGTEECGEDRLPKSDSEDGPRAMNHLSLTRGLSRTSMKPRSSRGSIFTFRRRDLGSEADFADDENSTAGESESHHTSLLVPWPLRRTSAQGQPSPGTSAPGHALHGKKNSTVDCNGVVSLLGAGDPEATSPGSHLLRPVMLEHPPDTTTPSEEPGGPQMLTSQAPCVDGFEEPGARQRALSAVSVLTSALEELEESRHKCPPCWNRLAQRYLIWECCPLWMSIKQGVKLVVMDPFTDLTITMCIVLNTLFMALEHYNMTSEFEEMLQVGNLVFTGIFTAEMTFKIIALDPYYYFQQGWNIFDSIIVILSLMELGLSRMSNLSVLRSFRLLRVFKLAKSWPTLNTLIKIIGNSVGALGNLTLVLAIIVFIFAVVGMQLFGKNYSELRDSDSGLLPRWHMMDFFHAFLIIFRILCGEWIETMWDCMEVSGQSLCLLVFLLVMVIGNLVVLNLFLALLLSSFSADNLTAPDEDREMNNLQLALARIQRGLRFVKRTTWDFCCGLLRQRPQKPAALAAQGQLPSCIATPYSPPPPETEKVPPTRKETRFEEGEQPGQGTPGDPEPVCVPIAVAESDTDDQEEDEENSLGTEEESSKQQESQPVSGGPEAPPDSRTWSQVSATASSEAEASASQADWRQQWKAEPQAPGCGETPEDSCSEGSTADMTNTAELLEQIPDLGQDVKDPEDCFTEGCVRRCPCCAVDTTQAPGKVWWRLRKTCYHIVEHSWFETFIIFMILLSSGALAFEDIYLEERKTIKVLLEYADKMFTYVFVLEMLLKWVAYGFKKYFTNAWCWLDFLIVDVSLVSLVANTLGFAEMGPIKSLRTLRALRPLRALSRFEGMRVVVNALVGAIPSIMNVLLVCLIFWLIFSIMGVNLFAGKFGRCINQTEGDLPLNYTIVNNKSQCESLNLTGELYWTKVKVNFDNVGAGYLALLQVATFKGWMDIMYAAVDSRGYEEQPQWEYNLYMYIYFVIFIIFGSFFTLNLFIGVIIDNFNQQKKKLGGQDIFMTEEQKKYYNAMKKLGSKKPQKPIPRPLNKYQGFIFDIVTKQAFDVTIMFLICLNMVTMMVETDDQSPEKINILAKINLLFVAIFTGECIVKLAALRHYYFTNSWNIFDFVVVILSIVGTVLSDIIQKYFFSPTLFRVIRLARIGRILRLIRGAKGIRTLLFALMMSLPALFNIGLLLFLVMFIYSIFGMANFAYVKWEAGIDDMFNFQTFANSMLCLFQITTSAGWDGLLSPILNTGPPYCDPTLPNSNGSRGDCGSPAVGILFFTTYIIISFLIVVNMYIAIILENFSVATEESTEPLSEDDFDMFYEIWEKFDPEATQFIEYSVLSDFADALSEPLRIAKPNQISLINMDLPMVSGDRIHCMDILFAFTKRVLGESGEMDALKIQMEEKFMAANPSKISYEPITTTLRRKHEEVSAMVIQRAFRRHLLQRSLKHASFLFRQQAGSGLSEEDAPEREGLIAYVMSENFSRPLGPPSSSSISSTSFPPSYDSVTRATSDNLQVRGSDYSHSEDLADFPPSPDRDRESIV

[2] = system: female rabbit isolated heart treated with E-4031; experiment: Torsades de pointes in rabbit isolated heart treated with E-4031; conditions: E-4031 60 nM
Procedure: Each rabbit was sedated using intramuscular injections of 6 mg/kg xylazine and 40 mg/kg ketamine and then anesthetized using a “cocktail” of ketamine (15 mg/kg)+xylazine (4 mg/kg) in 1.5 ml saline. The ketamine/xylazine cocktail was administered as an i.v. bolus via the marginal ear vein. After anesthesia was confirmed, the thorax was opened and the heart was quickly excised. The heart was placed in a modified Krebs-Henseleit (K-H) physiological saline solution at room temperature. […] CPP was measured (with a Biopac MP 150 pressure transducer, Goleta, Calif.) from a side port of the aortic catheter. To facilitate exit of fluid from the chamber of the left ventricle (LV), the leaflets of the mitral valve were trimmed with fine spring-handled scissors. The right atrial wall was partially removed.
Complete AV block was induced by thermo-ablation of the AV nodal area. […] A bipolar Teflon-coated electrode was placed on the right ventricular septum to pace the heart. Electrical stimuli 3 ms in width and 3-fold threshold amplitude were delivered to the pacing electrode at a frequency of 1 Hz throughout the experiments using a Grass S48 stimulator (W. Warwick, R.I.).
After initiation of ventricular pacing, a 30-40 min equilibration delay was allowed for heart rate (and CPP) to achieve a steady state, an essential experimental condition for recording a good quality monophasic action potential (MAP) recording.
Monophasic action potential (MAP) and ECG electrodes from Harvard Apparatus Inc. (Holliston, Mass.) were used to record heart rate (in beats per minute, or bpm), left ventricular MAPs and a bipolar ECG MAP electrodes were pressure contact Ag—AgCl cells attached to a circular holder with springs to keep the electrodes in contact with the LV epicardial surface. Two MAP electrodes were placed on the epicardial ventricular free wall below the level of the atrial-ventricular valves, one at the base to record a basal MAP and one at the apex to record an apical MAP. […] Signals were saved on a computer hard disk for subsequent analysis. Bipolar electrocardiograms (ECG) were generated using an isolated-heart ECG apparatus (Harvard Apparatus, Holliston, Mass.) attached to Biopac amplifier system.

[3] = target: T1, hNav1.5 (Homo sapiens, UniProt Q14524); experiment: Tefluthrin-induced late sodium current in HEK293 cells expressing hNav1.5; assay type: cell-based; conditions: HEK293 cells expressing Nav1.5
T1 construct: expressed in transfected cells; host or cells: HEK293
Procedure: The effect of dronedarone on late INa has not been reported. Therefore we determined the effect of dronedarone on late INa induced by incubation of HEK293 cells expressing the human heart sodium channel gene Nav1.5 with the late INa enhancer tefluthrin. […] Thus, the combination of dronedarone and ranolazine may be anticipated to reduce late INa. A reduction of late INa in the heart has been associated with a reduction of atrial arrhythmias in patients and in animal models of atrial fibrillation.

[4] = system: canine left ventricular superfused tissue slice preparations; conditions: dronedarone 30 μM, M cell preparations, CL of 2000 ms; cited from earlier work
[5] = system: ventricular and atrial ERP in in vivo dogs; conditions: acute dronedarone; cited from earlier work
[6] = system: superfused rabbit atrial preparations; conditions: 10 μM dronedarone, CL of 125 ms; cited from earlier work
[7] = system: superfused guinea pig papillary muscles; conditions: dronedarone 10 μM, CL of 1000 ms; cited from earlier work
[8] = system: canine ventricular muscle and Purkinje fiber superfused preparations; conditions: acute dronedarone 10 μM, CL of 1000 ms; cited from earlier work
[9] = system: atrial preparations; conditions: 5 μM ranolazine; cited from earlier work
[10] = system: PV sleeves; conditions: ranolazine 10 μM; ACh, isoproterenol, or high [Ca2+]o + rapid pacing; cited from earlier work

SMILES: CCCCc1oc2ccc(NS(C)(=O)=O)cc2c1C(=O)c1ccc(OCCCN(CCCC)CCCC)cc1 [Dronedarone, N-(2-Butyl-3-(p-(3-(dibutylamino)propoxy)benzoyl)-5-benzofuranyl)methanesulfonamide]
- Effect on MAPD90 [1]: small but significant increase
- TdP (FIG. 20) ([2]; dronedarone 0.3 μM alone, ranolazine 6 μM and dronedarone 0.3 μM): not terminated
- TdP (FIG. 18) ([2]; dronedarone 0.1-0.3 μM): did not terminate the TdP
- Incidence of TdP and EADs ([2]; dronedarone 0.3-10 μM, ranolazine 6 and 10 μM): decreased but did not abolish
- TdP (FIG. 19) ([2]; dronedarone 6-10 μM alone, ranolazine 6-10 μM with dronedarone 10 μM): not terminated
- Effect on tefluthrin-induced late INa [3]: reduced the tefluthrin-induced late INa in a concentration-dependent manner
- Abbreviation of APD90 [4]: 7%
- Prolongation of ventricular and atrial ERP [5]: up to 23%
- Reduction of Vmax [6]: 16%
- Depression of Vmax [7]: 14%
- Effect on Vmax [8]: did not reduce Vmax significantly

SMILES: COc1ccccc1OCC(O)CN1CCN(CC(=O)Nc2c(C)cccc2C)CC1 (racemic) [Ranolazine, (±)-N-(2,6-dimethylphenyl)-4-[2-hydroxy-3-(2-methoxyphenoxy)-propyl]-1-piperazineacetamide]
- Atrial preparations in which induction of AF was prevented [9]: 60%
- Late phase 3 EADs, DADs and triggered activity [10]: suppresses; also recorded: effectively suppressed

From patent publication US9056108B2, “Method of treating atrial fibrillation” (Gilead Sciences, Inc., priority 2009, dated 2015)
